The list shows a part of the results. The main result of the screen is listed elsewhere. These columns were measured beside it and carry no call. Compounds called inactive in the main read-out are mostly missing here. The note in brackets gives the kind of curve behind each potency; many fits are weak.

A short description of this assay: qHTS Assay for Lipid Storage Modulators in Drosophila S3 Cells.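 On cell number change: cells counted by Cell Tracker Red CMTPX staining in the red channel.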 Conditions: BODIPY lipid droplet fluorescence, 18-24 h; for cell number change: measured here: cell count max response, cells fed with added oleic acid. The gist of the method: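 Laser-scanning cytometry quantifies lipid droplet accumulation (500–530 nm total intensity; droplet/cell object ratio) in oleic acid-fed (400 uM added) Drosophila S3 cells treated with a concentration series. 20 uM Triacsin C defined 100% inhibition.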

The mark [1] stands for this setting: measured here: cell number channel AC50, cells fed with added oleic acid.
[2] abbreviates: measured here: lipid fluorescence (Fed channel) AC50, cells fed with added oleic acid.

For `CCCCn1c(NCc2cccs2)nc2ccccc21`, the cell number change came out at 21%. Moreover, under setting [1], the half-maximal activity concentration (AC50) is 3.66 µM [rising, single point].

As for `COc1cccc(NC(=O)COC(=O)c2c3c(nc4ccccc24)CCC(C)C3)c1` (centres undefined), the cell number change was -49.3%. Further, under setting [1], the AC50 is 29.1 µM [falling, single point]. Moreover, the AC50 under setting [2] was 7.31 µM [falling, partial curve].

On to `Cc1onc(-c2ccccc2Cl)c1C(=O)Nc1ccccc1C(N)=O`, for which the cell number change is -7.18%.

On to `C=CCn1c(SCC(=O)Nc2ccc(N(C)C)cc2)nnc1-c1cccc(C)c1`, for which the cell number change stood at 16.1%. Also, the half-maximal activity concentration (AC50) under setting [1] was 0.326 µM [rising, full curve, poor fit]. Moreover, the concentration at half-maximal activity (AC50) under setting [2] was 14.6 µM [rising, partial curve].

Regarding `CCOc1cc(C(N)=O)cc(Br)c1OCC`, the cell number change came to 9.32%. Further, under setting [2], the AC50 is 23.1 µM [rising, single point].

Turning to `C=CCN1C(=O)C2(NNc3ccccc3O2)c2ccccc21` (centres undefined), the cell number change is -50.8%. Besides, the AC50 under setting [1] was 29.1 µM [falling, single point]. Also, the AC50 under setting [2] was 23.1 µM [falling, partial curve].

For the molecule `CCC1(C)Cc2c(sc3nc(SC)n(Cc4ccccc4)c(=O)c23)CO1` (centres undefined), the cell number change came to 0.678%. For the same molecule, the half-maximal activity concentration (AC50) under setting [2] is 6.51 µM [rising, single point].

Regarding `CC(CC(=O)O)CC1=NS(=O)(=O)c2ccccc2N1` (centres undefined), the AC50 under setting [2] was 10.3 µM [falling, partial curve].

As for `COc1ccc(-c2cc(C)no2)cc1S(=O)(=O)Nc1cccc(C)c1`, the cell number change was -6.59%. The AC50 under setting [2] was 5.17 µM [rising, partial curve].

As to `CCc1ccc(N2CC(C(=O)OCC(=O)Nc3ccc(C(C)=O)cc3)CC2=O)cc1` (centres undefined), the cell number change was -3.92%. Besides, the AC50 under setting [2] is 0.231 µM [falling, full curve].

Consider `O=C(NCCc1c[nH]c2ccccc12)c1ccc2nc[nH]c2c1`, for which the AC50 under setting [2] was 29.1 µM [rising, single point].

For `O=C(c1ccc(Br)o1)N1CCN(c2ncccn2)CC1`, the cell number change amounted to 87.9%. For the same molecule, under setting [1], the AC50 was 0.517 µM [rising, full curve]. Moreover, the AC50 under setting [2] is 18.4 µM [rising, partial curve].

Turning to `O=C(Nc1ccncc1)c1cc2ccccc2cc1O`, the cell number change was determined as 13.1%. Under setting [2], the AC50 was 8.2 µM [rising, partial curve].

For the molecule `CC(=O)N1CCN(c2ccc(Oc3ncnc4sccc34)cc2)CC1`, the AC50 under setting [2] is 0.092 µM [falling, full curve, poor fit].

As for `CCCCCCOC(=O)C[N+](C)(C)CCOC1CC2CCC1(C)C2(C)C` (centres undefined), the cell number change was -70.4%. Moreover, under setting [1], the half-maximal activity concentration (AC50) is 29.1 µM [falling, single point]. For the same molecule, the AC50 under setting [2] is 29.1 µM [falling, single point].

In the case of `COc1ccc(CN(C(=O)c2snc(C(N)=O)c2N)C(CC(C)C)C(=O)NC2CCCCC2)cc1` (centres undefined), the cell number change is -25.4%. Moreover, under setting [2], the AC50 is 29.1 µM [falling, single point].

For `N#C/C(=C\c1cccs1)C(=O)c1ccccc1`, the cell number change was 9.1%. Under setting [1], the AC50 was 3.66 µM [falling, single point].

On to `CN(CC(=O)Nc1ccc(Cl)cc1)CC(=O)Nc1cccc2ccccc12`, for which the cell number change was -24.5%. In addition, the concentration at half-maximal activity (AC50) under setting [2] was 2.91 µM [falling, partial curve].

Consider `CCNc1c([N+](=O)[O-])ncn1C`, for which the cell number change was -5.94%. The AC50 under setting [2] was 23.1 µM [falling, partial curve].

Turning to `CC(C)(C)C(=O)NC(C(N)=O)=C(Cl)Cl`, the cell number change is -15.4%. Also, the concentration at half-maximal activity (AC50) under setting [1] was 0.092 µM [falling, full curve].

Turning to `O=c1[nH]c2cc3c(cc2cc1CN(CCc1ccccc1)Cc1nnnn1C1CCCC1)OCCO3`, the cell number change was -8.93%.

For the molecule `CCCS(=O)(=O)Nc1c(OC)ccc2c1c(C(=O)OCC)c(C)n2C`, the cell number change came to 0.854%. Besides, the AC50 under setting [2] is 2.59 µM [rising, single point].

Turning to `Cc1ccccc1NC(=O)Cc1nc(COC(=O)COc2ccccc2C(C)C)cs1`, the cell number change is -21.9%. In addition, the AC50 under setting [2] was 20.6 µM [falling, single point].

On to `Cc1cc(O)c(NC(=O)c2ccc(C)c([N+](=O)[O-])c2)cc1C`, for which the cell number change stood at 16.2%. Further, the concentration at half-maximal activity (AC50) under setting [2] is 0.0058 µM [rising, full curve, poor fit].

Regarding `O=C(Nc1ccc(C(=O)O)cc1)Nc1ccc(F)cc1F`, the cell number change came out at 16.8%.

With `COc1cc(CO)cc(Br)c1OCC(=O)Nc1cccc2ccccc12`, the cell number change was found to be 34.7%. The AC50 under setting [1] was 0.259 µM [rising, full curve, poor fit]. For the same molecule, the half-maximal activity concentration (AC50) under setting [2] is 0.259 µM [rising, partial curve, poor fit].

Take `Clc1ccc(-c2cnc3n2CCC3)cc1`: the cell number change was -10.2%.

On to `O=C(COC(=O)CCCOc1ccccc1)NNC(=O)c1ccc([N+](=O)[O-])cc1`, for which the cell number change came to 12.1%.

On to `COc1ccccc1CC(=O)N1CCC(n2nccc2NC(=O)C2CCOC2)CC1` (centres undefined), for which the cell number change was -24%. Besides, under setting [2], the AC50 is 0.291 µM [falling, full curve, poor fit].

As to `Cc1cc(OCC(=O)N(C)Cc2ccccc2)ccc1Br`, the cell number change was -7.72%. Also, under setting [2], the AC50 was 29.1 µM [falling, partial curve, poor fit].

For the molecule `Cc1cc(C(=O)NNC(=O)c2ccc(Cl)cc2)no1`, the cell number change worked out at 1.42%. The concentration at half-maximal activity (AC50) under setting [2] is 0.00517 µM [falling, full curve, poor fit].

Regarding `COc1ccc(-c2nc3c(n2O)CCC/C3=N\O)cc1`, the AC50 under setting [2] is 5.8 µM [falling, single point].

For `C=CCn1c(SCC(=O)c2cc(C)n(Cc3cccs3)c2C)nnc1-c1ccncc1`, the cell number change stood at 11.8%. For the same molecule, under setting [1], the half-maximal activity concentration (AC50) is 1.64 µM [rising, partial curve]. The AC50 under setting [2] was 5.8 µM [rising, full curve].

`CCc1ccc[n+](-c2nc([O-])sc2C=O)c1`: the cell number change is -23.2%.

Turning to `CC(=O)c1ccc(N2CCN(C(=O)CCS(=O)(=O)c3ccc4c(c3)CCN4C(C)=O)CC2)cc1`, the cell number change was 1.65%. Besides, the AC50 under setting [1] is 0.0731 µM [rising, full curve, poor fit].

`COc1ccc(C)cc1-n1c(SCC(=O)NC2CC2)nc2ccccc2c1=O`: the cell number change was -6.74%. In addition, the AC50 under setting [2] is 0.184 µM [falling, full curve, poor fit].

As for `O=C(COc1ccccc1)N1c2ccccc2Sc2ccccc21`, the cell number change was -8.75%. Besides, the AC50 under setting [2] was 13 µM [rising, partial curve, poor fit].

Take `COCCNC(=O)NC(=O)COC(=O)C12CC3CC(CC(NC(C)=O)(C3)C1)C2`: the cell number change turned out to be 3.46%.

For the molecule `Cc1ccc(S(=O)(=O)N(C)c2ccc(OC(=O)c3ccc(=O)[nH]c3)cc2)cc1`, the cell number change was -44.9%. The AC50 under setting [1] is 25.9 µM [falling, single point]. Besides, the AC50 under setting [2] is 4.61 µM [falling, partial curve, poor fit].

Turning to `Cc1ccnc(Nc2nc(-c3ccccc3)cs2)c1`, the cell number change is -12.6%. Under setting [2], the AC50 is 3.26 µM [falling, full curve, poor fit].

On to `O=C1CC(SCc2nc3ccccc3[nH]2)C(=O)N1c1ccc(F)c(Cl)c1` (centres undefined), for which the cell number change came out at 38.7%. Further, the half-maximal activity concentration (AC50) under setting [1] is 29.1 µM [rising, single point].

Consider `CCOC(=O)N1CCN(C(=O)C2CCCN(c3ncnc4c3nc3n4CCCCC3)C2)CC1` (centres undefined), for which the cell number change was -48.4%. Besides, the AC50 under setting [1] is 32.6 µM [falling, single point]. Moreover, the AC50 under setting [2] is 29.1 µM [falling, single point].

With `Cc1ccc(S(=O)(=O)c2nc(-c3ccccc3Cl)oc2N(C)C)cc1`, the cell number change stood at 10.8%. Further, the half-maximal activity concentration (AC50) under setting [2] is 5.17 µM [rising, partial curve].

In the case of `COc1ccc(NC(=O)c2cccc(Oc3ccc([N+](=O)[O-])cc3Cl)c2)cc1`, the cell number change was -1.93%. Also, the AC50 under setting [1] is 6.51 µM [rising, single point]. In addition, the half-maximal activity concentration (AC50) under setting [2] is 32.6 µM [rising, single point].

For the molecule `Cc1c(C(=O)NN2CCOCC2)oc2c1ccc1ccccc12`, the cell number change is -17.6%.

`CCS(=O)(=O)N1Cc2ccccc2CC1C(=O)Nc1cc(S(C)(=O)=O)ccc1Cl` (centres undefined): the cell number change stood at 25.4%. Moreover, the AC50 under setting [2] is 6.51 µM [rising, partial curve].

For `CCCN(C(=O)Cn1ncc2c(=O)oc3ccccc3c21)c1cccc(C)c1`, the cell number change was -12.3%. The AC50 under setting [2] was 16.4 µM [falling, single point].

Take `CCOC(=O)c1cn(CC)c2c(ccc3ccccc32)c1=O`: the cell number change is -1.1%.

Take `Cc1cc([N+](=O)[O-])nn1CC(=O)Nc1ccc(Cl)cn1`: the cell number change was -39.6%.

Regarding `COc1cc(C=O)ccc1OCCOCCOc1ccccc1Cl`, the cell number change was -35.9%. The AC50 under setting [1] was 7.31 µM [falling, partial curve, poor fit].

Regarding `COc1ccc(C(=O)Nc2ccc3ccccc3c2)cc1OC`, the cell number change is -22%.

With `N#Cc1ccc(-c2nc3ccccc3c(=O)n2O)cc1`, the cell number change is -39.5%. For the same molecule, the half-maximal activity concentration (AC50) under setting [1] was 7.31 µM [falling, partial curve]. For the same molecule, the AC50 under setting [2] is 5.17 µM [falling, partial curve].

`Cc1ccc(S(=O)(=O)N(C)C)cc1NC(=S)N1CCN(Cc2ccc3c(c2)OCO3)CC1`: the cell number change amounted to 63.6%. The half-maximal activity concentration (AC50) under setting [1] is 9.2 µM [rising, partial curve, poor fit].

As to `Cc1onc(-c2c(F)cccc2Cl)c1C(=O)OCC(=O)NC(=O)NCC(C)C`, the cell number change was found to be 85.4%.

Take `CN(C(=O)c1ccccc1)C1c2c(ccc3ccccc23)OCC1CO` (centres undefined): the cell number change is 96.4%. The concentration at half-maximal activity (AC50) under setting [2] is 6.51 µM [falling, single point].

Take `COc1ccccc1NC(=O)CSc1nnc(C2CCCCC2)o1`: the cell number change came to 36.8%. The AC50 under setting [1] was 29.1 µM [rising, single point].

Regarding `N#Cc1cccc(C(=O)OCC(=O)N2CCCc3ccccc32)c1`, the cell number change was -19.6%. In addition, under setting [2], the half-maximal activity concentration (AC50) is 11.6 µM [falling, partial curve, poor fit].

For `CSc1ccccc1OCc1cc(C(=O)N(C)C(C)c2nc(C)cs2)no1` (centres undefined), the cell number change is -9.63%.

`O=C(OCc1ccccc1)c1cc(S(=O)(=O)N2CCCCC2)ccc1N1CCOCC1`: the cell number change is -28.9%. For the same molecule, the concentration at half-maximal activity (AC50) under setting [2] was 29.1 µM [falling, single point].

Consider `Cc1ccc(-c2nnc(SCC(N)=O)nc2-c2ccc(C)cc2)cc1`, for which the cell number change came out at 2.25%.

In the case of `COc1ccc(Cl)cc1S(=O)(=O)N(C)CC(=O)NCc1ccccn1`, the cell number change was determined as 26.5%.

Take `Cc1onc(-c2ccccc2)c1C(=O)c1c[nH]c(C(=O)NCc2ccccn2)c1`: the cell number change is -11.7%.

With `O=C(NCCCn1ccnc1)/C(=C\c1cccnc1)NC(=O)c1ccco1`, the cell number change was -51%. For the same molecule, the AC50 under setting [1] is 29.1 µM [falling, single point].

With `Cc1cccc(NC(=O)C(C)SCc2nc3sc(C)c(C)c3c(=O)[nH]2)n1` (centres undefined), the cell number change is -5.45%. In addition, the half-maximal activity concentration (AC50) under setting [1] was 0.206 µM [rising, full curve].

The values are drawn from PubChem BioAssay AID2685 (National Center for Advancing Translational Sciences (NCATS), 2010).
